{"source": "the supplement of paper PMC8728848", "binders": {"B1": {"name": "GST Gap3 (Streptococcus parasanguinis) (protein)", "chain": "MTKQLISEIYWNEIRKGENYLYGSQIKFQEDLVNFYNPQLASGKPIVTFKSRTNYQGDRHSPDLPILIQGNRYLLEYQIDAVPANSFFLQLDFFNRQAEQIESIVLRNSGESFIFPKDTFTYTLTLMSAGCQSVTYQKFMIYDINDEEKKNHIVENRYLRELLPKDLDLVKNLIEYI"}}, "experiment_in_all_cases": "glycan array binding signal (z-score within array); higher = stronger binding", "conditions_in_all_cases": "glycan notation: IUPAC condensed, linker removed", "key": {"[1]": {"molecular_target": "Gal(b1-3)GalNAc(a1-3)[Fuc(a1-2)]Gal(b1-4)GlcNAc", "in_short": "(§1)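 Glycan array data came from 3228 arrays in the Consortium for Functional Glycomics database, and only arrays with an available protein sequence were kept. Glycan names were put into IUPAC-condensed notation, and columns mapping to the same glycan were averaged. The binding signal is a within-array Z-score, averaged across arrays of one protein sequence run at different concentrations or buffers and across linkers. A negative Z-score can be read as non-binding.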"}, "[2]": {"molecular_target": "Gal(b1-3)GalNAc(b1-3)Gal", "in_short": "as §1"}, "[3]": {"molecular_target": "Gal(b1-3)GalNAc(b1-3)Gal(a1-4)Gal(b1-4)Glc", "in_short": "as §1"}, "[4]": {"molecular_target": "Gal(b1-3)GalNAc(b1-4)Gal(b1-4)Glc", "in_short": "as §1"}, "[5]": {"molecular_target": "Gal(b1-3)GalNAc(b1-4)[Neu5Ac(a2-3)]Gal(b1-4)Glc", "in_short": "as §1"}, "[6]": {"molecular_target": "Gal(b1-3)GlcNAc", "in_short": "as §1"}, "[7]": {"molecular_target": "Gal(b1-3)GlcNAc(a1-3)Gal(b1-4)GlcNAc", "in_short": "as §1"}, "[8]": {"molecular_target": "Gal(b1-3)GlcNAc(a1-6)Gal(b1-4)GlcNAc", "in_short": "as §1"}, "[9]": {"molecular_target": "Gal(b1-3)GlcNAc(b1-2)Man", "in_short": "as §1"}, "[10]": {"molecular_target": "Gal(b1-3)GlcNAc(b1-2)Man(a1-3)[Gal(b1-3)GlcNAc(b1-2)Man(a1-6)]Man(b1-4)GlcNAc(b1-4)GlcNAc", "in_short": "as §1"}, "[11]": {"molecular_target": "Gal(b1-3)GlcNAc(b1-2)Man(a1-3)[Gal(b1-3)GlcNAc(b1-2)Man(a1-6)]Man(b1-4)GlcNAc(b1-4)[Fuc(a1-6)]GlcNAc", "in_short": "as §1"}, "[12]": {"molecular_target": "Gal(b1-3)GlcNAc(b1-2)Man(a1-3)[GlcNAc(b1-4)][Gal(b1-3)GlcNAc(b1-2)Man(a1-6)]Man(b1-4)GlcNAc(b1-4)GlcNAc", "in_short": "as §1"}, "[13]": {"molecular_target": "Gal(b1-3)GlcNAc(b1-2)[Gal(b1-3)GlcNAc(b1-6)]Man(a1-6)[Gal(b1-3)GlcNAc(b1-2)Man(a1-3)]Man(b1-4)GlcNAc(b1-4)GlcNAc", "in_short": "as §1"}, "[14]": {"molecular_target": "Gal(b1-3)GlcNAc(b1-3)Gal(b1-3)GlcNAc", "in_short": "as §1"}, "[15]": {"molecular_target": "Gal(b1-3)GlcNAc(b1-3)Gal(b1-4)Glc", "in_short": "as §1"}, "[16]": {"molecular_target": "Gal(b1-3)GlcNAc(b1-3)Gal(b1-4)GlcNAc", "in_short": "as §1"}, "[17]": {"molecular_target": "Gal(b1-3)GlcNAc(b1-3)Gal(b1-4)GlcNAc(b1-2)Man(a1-3)[Gal(b1-3)GlcNAc(b1-3)Gal(b1-4)GlcNAc(b1-2)Man(a1-6)]Man(b1-4)GlcNAc(b1-4)GlcNAc", "in_short": "as §1"}, "[18]": {"molecular_target": "Gal(b1-3)GlcNAc(b1-3)Gal(b1-4)GlcNAc(b1-2)[Gal(b1-3)GlcNAc(b1-3)Gal(b1-4)GlcNAc(b1-6)]Man(a1-6)[Gal(b1-3)GlcNAc(b1-3)Gal(b1-4)GlcNAc(b1-2)Man(a1-3)]Man(b1-4)GlcNAc(b1-4)[Fuc(a1-6)]GlcNAc", "in_short": "as §1"}, "[19]": {"molecular_target": "Gal(b1-3)GlcNAc(b1-3)Gal(b1-4)GlcNAc(b1-3)Gal(b1-4)GlcNAc(b1-2)[Gal(b1-3)GlcNAc(b1-3)Gal(b1-4)GlcNAc(b1-3)Gal(b1-4)GlcNAc(b1-6)]Man(a1-6)[Gal(b1-3)GlcNAc(b1-3)Gal(b1-4)GlcNAc(b1-3)Gal(b1-4)GlcNAc(b1-2)Man(a1-3)]Man(b1-4)GlcNAc(b1-4)[Fuc(a1-6)]GlcNAc", "in_short": "as §1"}, "[20]": {"molecular_target": "Gal(b1-3)GlcNAc(b1-3)Gal(b1-4)GlcNAc(b1-6)[Gal(b1-3)GlcNAc(b1-3)]Gal(b1-4)Glc", "in_short": "as §1"}, "[21]": {"molecular_target": "Gal(b1-3)GlcNAc(b1-3)Gal(b1-4)[Fuc(a1-3)]GlcNAc", "in_short": "as §1"}, "[22]": {"molecular_target": "Gal(b1-3)GlcNAc(b1-3)Gal(b1-4)[Fuc(a1-3)]GlcNAc(b1-6)[Gal(b1-3)GlcNAc(b1-3)]Gal(b1-4)Glc", "in_short": "as §1"}, "[23]": {"molecular_target": "Gal(b1-3)GlcNAc(b1-3)GalNAc", "in_short": "as §1"}, "[24]": {"molecular_target": "Gal(b1-3)GlcNAc(b1-6)Gal(b1-4)GlcNAc", "in_short": "as §1"}, "[25]": {"molecular_target": "Gal(b1-3)GlcNAc(b1-6)GalNAc", "in_short": "as §1"}, "[26]": {"molecular_target": "Gal(b1-3)GlcNAc(b1-6)[Gal(b1-3)]GalNAc", "in_short": "as §1"}, "[27]": {"molecular_target": "Gal(b1-3)GlcNAc6S", "in_short": "as §1"}, "[28]": {"molecular_target": "Gal(b1-3)[Fuc(a1-4)]GlcNAc", "in_short": "as §1"}, "[29]": {"molecular_target": "Gal(b1-3)[Fuc(a1-4)]GlcNAc(b1-2)Man", "in_short": "as §1"}, "[30]": {"molecular_target": "Gal(b1-3)[Fuc(a1-4)]GlcNAc(b1-2)Man(a1-3)[Gal(b1-3)[Fuc(a1-4)]GlcNAc(b1-2)Man(a1-6)]Man(b1-4)GlcNAc(b1-4)GlcNAc", "in_short": "as §1"}, "[31]": {"molecular_target": "Gal(b1-3)[Fuc(a1-4)]GlcNAc(b1-2)Man(a1-3)[Gal(b1-3)[Fuc(a1-4)]GlcNAc(b1-2)Man(a1-6)]Man(b1-4)GlcNAc(b1-4)[Fuc(a1-6)]GlcNAc", "in_short": "as §1"}, "[32]": {"molecular_target": "Gal(b1-3)[Fuc(a1-4)]GlcNAc(b1-3)Gal(b1-3)[Fuc(a1-4)]GlcNAc", "in_short": "as §1"}, "[33]": {"molecular_target": "Gal(b1-3)[Fuc(a1-4)]GlcNAc(b1-3)Gal(b1-4)GlcNAc", "in_short": "as §1"}, "[34]": {"molecular_target": "Gal(b1-3)[Fuc(a1-4)]GlcNAc(b1-3)Gal(b1-4)[Fuc(a1-3)]GlcNAc", "in_short": "as §1"}, "[35]": {"molecular_target": "Gal(b1-3)[Fuc(a1-4)]GlcNAc(b1-6)GalNAc", "in_short": "as §1"}, "[36]": {"molecular_target": "Gal(b1-3)[GlcNAc(b1-6)]GalNAc", "in_short": "as §1"}, "[37]": {"molecular_target": "Gal(b1-3)[Neu5Ac(a2-6)]GalNAc", "in_short": "as §1"}, "[38]": {"molecular_target": "Gal(b1-3)[Neu5Ac(a2-6)]GlcNAc(b1-4)Gal(b1-4)Glc", "in_short": "as §1"}, "[39]": {"molecular_target": "Gal(b1-3)[Neu5Ac(a2-6)]GlcNAc(b1-6)Gal(b1-4)Glc", "in_short": "as §1"}, "[40]": {"molecular_target": "Gal(b1-3)[Neu5Ac(b2-6)]GalNAc", "in_short": "as §1"}, "[41]": {"molecular_target": "Gal(b1-4)Gal", "in_short": "as §1"}, "[42]": {"molecular_target": "Gal(b1-4)GalNAc(a1-3)[Fuc(a1-2)]Gal(b1-4)GlcNAc", "in_short": "as §1"}, "[43]": {"molecular_target": "Gal(b1-4)GalNAc(b1-3)[Fuc(a1-2)]Gal(b1-4)GlcNAc", "in_short": "as §1"}, "[44]": {"molecular_target": "Gal(b1-4)Glc", "in_short": "as §1"}, "[45]": {"molecular_target": "Gal(b1-4)Glc6S", "in_short": "as §1"}}, "note": "This is one part of the list."}
{"binder": "B1", "values": [{"measurement": "glycan array binding signal (z-score)", "setting": "[1]", "result": -0.52}, {"measurement": "glycan array binding signal (z-score)", "setting": "[2]", "result": -0.598}, {"measurement": "glycan array binding signal (z-score)", "setting": "[3]", "result": -0.402}, {"measurement": "glycan array binding signal (z-score)", "setting": "[4]", "result": -0.084}, {"measurement": "glycan array binding signal (z-score)", "setting": "[5]", "result": 0.142}, {"measurement": "glycan array binding signal (z-score)", "setting": "[6]", "result": -0.164}, {"measurement": "glycan array binding signal (z-score)", "setting": "[7]", "result": 1.03}, {"measurement": "glycan array binding signal (z-score)", "setting": "[8]", "result": -0.657}, {"measurement": "glycan array binding signal (z-score)", "setting": "[9]", "result": -0.116}, {"measurement": "glycan array binding signal (z-score)", "setting": "[10]", "result": 1.86}, {"measurement": "glycan array binding signal (z-score)", "setting": "[11]", "result": -0.196}, {"measurement": "glycan array binding signal (z-score)", "setting": "[12]", "result": 1.04}, {"measurement": "glycan array binding signal (z-score)", "setting": "[13]", "result": 0.783}, {"measurement": "glycan array binding signal (z-score)", "setting": "[14]", "result": -0.355}, {"measurement": "glycan array binding signal (z-score)", "setting": "[15]", "result": -0.072}, {"measurement": "glycan array binding signal (z-score)", "setting": "[16]", "result": -0.056}, {"measurement": "glycan array binding signal (z-score)", "setting": "[17]", "result": 0.821}, {"measurement": "glycan array binding signal (z-score)", "setting": "[18]", "result": 1.04}, {"measurement": "glycan array binding signal (z-score)", "setting": "[19]", "result": 4.03}, {"measurement": "glycan array binding signal (z-score)", "setting": "[20]", "result": 0.052}, {"measurement": "glycan array binding signal (z-score)", "setting": "[21]", "result": 0.626}, {"measurement": "glycan array binding signal (z-score)", "setting": "[22]", "result": 0.099}, {"measurement": "glycan array binding signal (z-score)", "setting": "[23]", "result": -0.691}, {"measurement": "glycan array binding signal (z-score)", "setting": "[24]", "result": 0.897}, {"measurement": "glycan array binding signal (z-score)", "setting": "[25]", "result": 0.002}, {"measurement": "glycan array binding signal (z-score)", "setting": "[26]", "result": 0.84}, {"measurement": "glycan array binding signal (z-score)", "setting": "[27]", "result": 0.203}, {"measurement": "glycan array binding signal (z-score)", "setting": "[28]", "result": -0.27}, {"measurement": "glycan array binding signal (z-score)", "setting": "[29]", "result": 0.489}, {"measurement": "glycan array binding signal (z-score)", "setting": "[30]", "result": 3.61}, {"measurement": "glycan array binding signal (z-score)", "setting": "[31]", "result": 0.928}, {"measurement": "glycan array binding signal (z-score)", "setting": "[32]", "result": -0.009}, {"measurement": "glycan array binding signal (z-score)", "setting": "[33]", "result": -0.289}, {"measurement": "glycan array binding signal (z-score)", "setting": "[34]", "result": -0.2}, {"measurement": "glycan array binding signal (z-score)", "setting": "[35]", "result": 0.456}, {"measurement": "glycan array binding signal (z-score)", "setting": "[36]", "result": 0.03}, {"measurement": "glycan array binding signal (z-score)", "setting": "[37]", "result": 0.684}, {"measurement": "glycan array binding signal (z-score)", "setting": "[38]", "result": 0.604}, {"measurement": "glycan array binding signal (z-score)", "setting": "[39]", "result": -0.162}, {"measurement": "glycan array binding signal (z-score)", "setting": "[40]", "result": 0.007}, {"measurement": "glycan array binding signal (z-score)", "setting": "[41]", "result": -0.247}, {"measurement": "glycan array binding signal (z-score)", "setting": "[42]", "result": 0.503}, {"measurement": "glycan array binding signal (z-score)", "setting": "[43]", "result": 0.316}, {"measurement": "glycan array binding signal (z-score)", "setting": "[44]", "result": -0.306}, {"measurement": "glycan array binding signal (z-score)", "setting": "[45]", "result": 0.242}]}
